The other results are listed elsewhere or left out. Further columns of the screen follow, without active or inactive calls. Compounds called inactive in the main read-out are mostly missing here. The note in brackets gives the kind of curve behind each potency; many fits are weak.
Experiment: qHTS Assay for Lipid Storage Modulators in Drosophila S3 Cells;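 on cell number change: cells counted by Cell Tracker Red CMTPX staining in the red channel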
Settings: BODIPY lipid droplet fluorescence, 18-24 h; for cell number change: measured here: cell count max response, cells fed with added oleic acid
Procedure, shortened: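 Drosophila S3 cells loaded with oleic acid (400 uM, as added) and compounds at several concentrations; lipid droplets imaged by 488-nm laser-scanning cytometry, 500–530 nm intensity and object ratio to cell channel. Percent activity normalized to 20 uM Triacsin C.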

[1] = measured here: lipid fluorescence (Fed channel) AC50, cells fed with added oleic acid
[2] = measured here: cell number channel AC50, cells fed with added oleic acid

Row | Structure (SMILES) | cell number change | AC50 [1] | AC50 [2]
1 | O=C(CNc1ccccc1C(=O)O)c1ccccc1 | 16% | 0.651 µM [falling, single point] | –
2 | O=C(N/N=C/c1cc([N+](=O)[O-])ccc1O)c1cccc(N2CCCC2=O)c1 | -30.6% | – | 35.5 µM [falling, single point]
3 | NC(=O)COC(=O)c1ccc2c(c1)C(=O)N(Cc1ccco1)C2=O | 2.52% | – | –
4 | N#C/C(=C\c1ccc(N2CCCC2)c([N+](=O)[O-])c1)c1nc2ccccc2[nH]1 | -17.2% | 6.51 µM [falling, single point] | –
5 | C#CCN(N(C)c1ncc(C(F)(F)F)cc1Cl)S(=O)(=O)c1ccc2ccccc2c1 | – | 6.51 µM [rising, single point] | –
6 | CC(C)c1ccc(/C=N/NC(=O)c2ccccc2Cl)cc1 | -17.6% | 0.13 µM [falling, full curve, poor fit] | –
7 | Nc1ccc(C(=O)OCC(=O)Nc2cc([N+](=O)[O-])ccc2F)cc1 | 10.2% | 29.1 µM [rising, single point] | –
8 | COc1ccc(C(=O)NC(=S)Nc2cccnc2)cc1[N+](=O)[O-] | – | 23.1 µM [rising, single point] | –
9 | CCOc1ccc2nc(N/C(N)=N/C(=S)Nc3cccc(C)c3)nc(C)c2c1 | 18.4% | 29.1 µM [rising, single point] | –
10 | O=C(Nc1ccc(Cl)cc1)c1cccs1 | -1.59% | 6.51 µM [falling, partial curve, poor fit] | –
11 | O=C(Nc1cccc(Cl)c1)c1cc(-c2ccco2)on1 | 30% | – | –
12 | Oc1ccccc1-c1nc(NCc2ccco2)c2ccccc2n1 | -44.2% | 4.61 µM [rising, full curve, poor fit] | –
13 | CC(C)C(=O)NCCSc1c[nH]c2ccccc12 | -0.851% | 0.82 µM [falling, full curve] | 1.03 µM [falling, full curve]
14 | COc1ccc([C@@]2(O)c3c(ccc(CC=C(C)C)c3O)NC(=O)[C@@H]2OC)cc1 | -15.9% | 0.116 µM [falling, full curve, poor fit] | –
15 | COc1cc(/C=C/C(=O)NC(C)(C)C)ccc1OCc1ccccc1 | – | 29.1 µM [falling, single point] | –
16 | CC1=NN(C(N)=S)C(=O)C1N=Nc1ccc(C)cc1C (configuration not stated) | 12.5% | 6.51 µM [falling, single point] | –
17 | CCOC(=O)c1ccc(NC(=O)CSc2nnc(Cc3cccs3)n2C)cc1 | -12.6% | – | –
18 | CCOC(=O)C1CCN(S(=O)(=O)c2ccc(OC)c(Cl)c2Cl)CC1 | -31.2% | 5.8 µM [falling, single point] | 0.411 µM [falling, full curve, poor fit]
19 | CC1(C)CC(=O)c2sc(NS(=O)(=O)Cc3ccccc3)nc2C1 | 0.28% | – | 0.00517 µM [rising, full curve, poor fit]
20 | O=C(CCCSc1nc2ccccc2[nH]1)NC1CCCCC1 | – | 3.26 µM [rising, single point] | 2.91 µM [rising, single point]

Row | Structure (SMILES) | cell number change | AC50 [1] | AC50 [2]
21 | Cc1ccc(-c2cn3cccnc3n2)cc1NC(=O)c1c(-c2ccccc2Cl)noc1C | -50.4% | – | 23.1 µM [falling, single point]
22 | N#Cc1nc(COc2ccc(F)cc2)oc1N1CCCC1 | 17.7% | 2.06 µM [rising, partial curve] | –
23 | CC(=O)OC1CCC2(C)C(COc3ccc4ccc(=O)oc4c3)C(C)(O)CCC2C1(C)C (configuration not stated) | -19.7% | 2.91 µM [rising, single point] | –
24 | N#CCCN1CCN(C(=S)c2ccc(-c3ccc(Cl)c(Cl)c3)o2)CC1 | -2.29% | 1.03 µM [rising, full curve, poor fit] | –
25 | N#Cc1nc(-c2cccs2)oc1N1CCN(Cc2ccccc2)CC1 | -15.9% | 13 µM [rising, partial curve] | –
26 | CCCCCOC(=O)C1=C(C)N(C)C(=O)NC1c1cc(Br)c(O)c(OC)c1 (configuration not stated) | 210% | – | 29.1 µM [rising, single point]
27 | CCOC(=O)c1ccc(NC(=O)CSc2nnc(CNC(=O)c3ccco3)o2)cc1 | – | 11.6 µM [falling, single point] | –
28 | Cc1nc(-c2ccncc2)nc(NCCNc2ccc(C(F)(F)F)cn2)c1Cl | -8.26% | – | –
29 | COc1cccc(NC(=O)C2CCN(Cc3cnn(-c4ccccc4)c3-n3cccc3)CC2)c1 | -46.6% | 18.4 µM [falling, single point] | 23.1 µM [falling, single point]
30 | O=C(NCCCN1CCOCC1)c1cnccn1 | 18.2% | 0.13 µM [rising, single point] | –
31 | NC(=O)C(c1ccccc1)C1CCCCC1 (configuration not stated) | 6.64% | 25.9 µM [falling, single point] | –
32 | NC1=NCc2ccccc21 | – | 9.2 µM [falling, partial curve] | –
33 | N#CC(C#N)=C1C=CC=CN1/C(=C\c1ccco1)C(=O)c1ccc(Cl)cc1 | -50.8% | 2.59 µM [falling, full curve] | 2.31 µM [falling, full curve]
34 | CCOc1ccc(C2C=C(c3ccc(F)cc3)Nc3ncnn32)cc1 (configuration not stated) | – | 5.17 µM [rising, single point] | 1.3 µM [rising, full curve]
35 | CC1CN(C(=O)c2ccc(CNS(=O)(=O)c3cccc(C(F)(F)F)c3)cc2)CC(C)O1 (configuration not stated) | -26.7% | 25.9 µM [falling, single point] | –
36 | CCOc1ccc(CCNC(=O)COC(=O)Cc2ccc(OC)c(OC)c2)cc1OCC | 20.9% | – | –
37 | NS(=O)(=O)c1ccc(CCNC/C=C/c2ccccc2)cc1 | -10.6% | 5.17 µM [rising, full curve, poor fit] | –
38 | O=C1OC(CN2CCOCC2)CN1N=Cc1ccc([N+](=O)[O-])o1 (configuration not stated) | -8.43% | 25.9 µM [falling, single point] | –
39 | COc1ccc(C(=O)Nc2ccccc2)cc1NC(=O)c1ccc([N+](=O)[O-])cc1 | -14.2% | 29.1 µM [falling, single point] | –

Another view of part of the listing above.
NS(=O)(=O)c1ccc(CCNC/C=C/c2ccccc2)cc1
  cell number change: -10.6%; AC50 [1]: 5.17 µM [rising, full curve, poor fit]
O=C1OC(CN2CCOCC2)CN1N=Cc1ccc([N+](=O)[O-])o1 (configuration not stated)
  cell number change: -8.43%; AC50 [1]: 25.9 µM [falling, single point]
